Measurements as given in the supplement of paper PMC10849652.
The list shows a part of the results.

Amino acid sequences for entries named in this document (tags omitted). A change or cut given only in a name is not applied to a line headed by its entry.
UniProt P30038: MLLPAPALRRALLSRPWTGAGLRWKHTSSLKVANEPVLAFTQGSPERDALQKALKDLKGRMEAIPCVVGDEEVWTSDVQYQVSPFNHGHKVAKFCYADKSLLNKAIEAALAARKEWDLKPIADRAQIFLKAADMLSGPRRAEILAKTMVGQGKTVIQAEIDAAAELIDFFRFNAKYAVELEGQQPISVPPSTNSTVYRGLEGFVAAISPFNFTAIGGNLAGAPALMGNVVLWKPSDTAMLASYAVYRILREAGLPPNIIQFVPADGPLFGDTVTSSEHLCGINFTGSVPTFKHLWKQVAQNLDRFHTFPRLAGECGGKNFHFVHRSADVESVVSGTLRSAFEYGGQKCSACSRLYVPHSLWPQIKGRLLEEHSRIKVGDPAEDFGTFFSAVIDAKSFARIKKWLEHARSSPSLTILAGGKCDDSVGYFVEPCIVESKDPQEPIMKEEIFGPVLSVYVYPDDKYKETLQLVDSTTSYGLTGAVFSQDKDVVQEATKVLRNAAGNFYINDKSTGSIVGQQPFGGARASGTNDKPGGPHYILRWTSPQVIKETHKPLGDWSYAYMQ
UniProt Q9UJX3, whole entry, looked up: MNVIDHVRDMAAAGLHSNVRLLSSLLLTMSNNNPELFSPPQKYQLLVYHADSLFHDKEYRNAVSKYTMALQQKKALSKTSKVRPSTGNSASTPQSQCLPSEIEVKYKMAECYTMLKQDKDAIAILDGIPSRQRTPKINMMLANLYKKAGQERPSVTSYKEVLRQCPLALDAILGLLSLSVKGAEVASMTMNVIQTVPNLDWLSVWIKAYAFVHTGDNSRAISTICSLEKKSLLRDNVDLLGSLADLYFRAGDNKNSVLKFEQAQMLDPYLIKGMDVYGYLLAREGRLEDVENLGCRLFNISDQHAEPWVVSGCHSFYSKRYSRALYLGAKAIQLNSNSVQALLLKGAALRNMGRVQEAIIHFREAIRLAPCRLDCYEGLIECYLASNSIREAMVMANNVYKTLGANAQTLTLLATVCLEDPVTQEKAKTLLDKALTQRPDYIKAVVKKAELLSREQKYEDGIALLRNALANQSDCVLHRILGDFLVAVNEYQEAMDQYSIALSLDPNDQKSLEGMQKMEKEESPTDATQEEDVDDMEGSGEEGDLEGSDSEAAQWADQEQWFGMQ
UniProt P49189: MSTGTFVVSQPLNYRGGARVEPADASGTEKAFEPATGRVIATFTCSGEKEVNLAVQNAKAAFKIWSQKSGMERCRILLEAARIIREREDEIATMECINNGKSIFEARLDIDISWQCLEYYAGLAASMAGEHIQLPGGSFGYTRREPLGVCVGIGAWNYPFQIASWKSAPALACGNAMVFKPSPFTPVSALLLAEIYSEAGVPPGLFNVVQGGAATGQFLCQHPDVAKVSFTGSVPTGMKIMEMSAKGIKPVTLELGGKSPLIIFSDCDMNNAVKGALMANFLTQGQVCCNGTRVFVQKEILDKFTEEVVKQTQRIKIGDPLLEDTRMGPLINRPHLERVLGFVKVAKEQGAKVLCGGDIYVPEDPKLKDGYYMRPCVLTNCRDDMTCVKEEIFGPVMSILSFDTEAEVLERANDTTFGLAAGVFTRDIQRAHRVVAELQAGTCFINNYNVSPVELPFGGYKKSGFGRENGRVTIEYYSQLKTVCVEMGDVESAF
UniProt Q3SY69: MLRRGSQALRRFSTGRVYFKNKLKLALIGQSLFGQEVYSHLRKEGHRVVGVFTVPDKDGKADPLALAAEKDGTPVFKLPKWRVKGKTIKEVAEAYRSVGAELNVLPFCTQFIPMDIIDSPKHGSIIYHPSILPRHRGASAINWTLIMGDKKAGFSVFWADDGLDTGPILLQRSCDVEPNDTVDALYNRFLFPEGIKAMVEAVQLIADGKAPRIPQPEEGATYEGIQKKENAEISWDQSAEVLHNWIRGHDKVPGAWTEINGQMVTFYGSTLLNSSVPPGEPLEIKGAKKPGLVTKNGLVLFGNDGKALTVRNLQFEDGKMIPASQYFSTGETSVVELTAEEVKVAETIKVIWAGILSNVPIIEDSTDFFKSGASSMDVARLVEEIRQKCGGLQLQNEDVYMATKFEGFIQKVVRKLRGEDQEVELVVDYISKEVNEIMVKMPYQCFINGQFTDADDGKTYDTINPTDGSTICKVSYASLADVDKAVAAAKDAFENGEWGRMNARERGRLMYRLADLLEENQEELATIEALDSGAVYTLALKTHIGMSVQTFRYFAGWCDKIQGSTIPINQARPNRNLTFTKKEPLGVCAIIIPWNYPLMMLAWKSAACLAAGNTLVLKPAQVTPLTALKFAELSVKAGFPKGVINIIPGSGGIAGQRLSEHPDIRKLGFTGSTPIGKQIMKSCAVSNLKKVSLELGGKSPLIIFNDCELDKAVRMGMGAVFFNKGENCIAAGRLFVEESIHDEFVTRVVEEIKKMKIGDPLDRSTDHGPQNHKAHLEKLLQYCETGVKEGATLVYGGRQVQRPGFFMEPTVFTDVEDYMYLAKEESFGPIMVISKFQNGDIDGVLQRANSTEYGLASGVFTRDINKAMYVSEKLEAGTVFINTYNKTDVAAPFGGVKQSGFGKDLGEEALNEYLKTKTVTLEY
UniProt P61966: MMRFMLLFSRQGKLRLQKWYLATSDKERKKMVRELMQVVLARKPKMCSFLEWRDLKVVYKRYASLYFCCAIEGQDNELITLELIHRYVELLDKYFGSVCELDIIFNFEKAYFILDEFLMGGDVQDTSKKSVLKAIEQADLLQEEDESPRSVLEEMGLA
UniProt Q9NW15: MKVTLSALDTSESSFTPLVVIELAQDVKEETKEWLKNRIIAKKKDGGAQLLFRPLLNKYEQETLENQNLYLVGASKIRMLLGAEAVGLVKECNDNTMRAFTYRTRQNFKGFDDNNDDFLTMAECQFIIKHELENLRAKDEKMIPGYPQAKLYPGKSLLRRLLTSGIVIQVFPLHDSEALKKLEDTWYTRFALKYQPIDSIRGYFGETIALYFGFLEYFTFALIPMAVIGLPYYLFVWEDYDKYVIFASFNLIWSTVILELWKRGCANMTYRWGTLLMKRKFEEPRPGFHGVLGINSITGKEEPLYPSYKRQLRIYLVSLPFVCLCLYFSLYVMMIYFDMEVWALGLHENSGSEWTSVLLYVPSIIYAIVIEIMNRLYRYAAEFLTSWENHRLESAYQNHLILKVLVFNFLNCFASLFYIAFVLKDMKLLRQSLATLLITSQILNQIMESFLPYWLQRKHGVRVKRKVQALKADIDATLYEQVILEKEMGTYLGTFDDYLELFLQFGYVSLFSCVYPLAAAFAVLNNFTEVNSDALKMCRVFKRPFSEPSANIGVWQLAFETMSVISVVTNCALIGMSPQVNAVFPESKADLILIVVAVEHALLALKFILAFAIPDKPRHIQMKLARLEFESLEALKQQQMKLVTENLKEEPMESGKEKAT
UniProt Q9P2R3: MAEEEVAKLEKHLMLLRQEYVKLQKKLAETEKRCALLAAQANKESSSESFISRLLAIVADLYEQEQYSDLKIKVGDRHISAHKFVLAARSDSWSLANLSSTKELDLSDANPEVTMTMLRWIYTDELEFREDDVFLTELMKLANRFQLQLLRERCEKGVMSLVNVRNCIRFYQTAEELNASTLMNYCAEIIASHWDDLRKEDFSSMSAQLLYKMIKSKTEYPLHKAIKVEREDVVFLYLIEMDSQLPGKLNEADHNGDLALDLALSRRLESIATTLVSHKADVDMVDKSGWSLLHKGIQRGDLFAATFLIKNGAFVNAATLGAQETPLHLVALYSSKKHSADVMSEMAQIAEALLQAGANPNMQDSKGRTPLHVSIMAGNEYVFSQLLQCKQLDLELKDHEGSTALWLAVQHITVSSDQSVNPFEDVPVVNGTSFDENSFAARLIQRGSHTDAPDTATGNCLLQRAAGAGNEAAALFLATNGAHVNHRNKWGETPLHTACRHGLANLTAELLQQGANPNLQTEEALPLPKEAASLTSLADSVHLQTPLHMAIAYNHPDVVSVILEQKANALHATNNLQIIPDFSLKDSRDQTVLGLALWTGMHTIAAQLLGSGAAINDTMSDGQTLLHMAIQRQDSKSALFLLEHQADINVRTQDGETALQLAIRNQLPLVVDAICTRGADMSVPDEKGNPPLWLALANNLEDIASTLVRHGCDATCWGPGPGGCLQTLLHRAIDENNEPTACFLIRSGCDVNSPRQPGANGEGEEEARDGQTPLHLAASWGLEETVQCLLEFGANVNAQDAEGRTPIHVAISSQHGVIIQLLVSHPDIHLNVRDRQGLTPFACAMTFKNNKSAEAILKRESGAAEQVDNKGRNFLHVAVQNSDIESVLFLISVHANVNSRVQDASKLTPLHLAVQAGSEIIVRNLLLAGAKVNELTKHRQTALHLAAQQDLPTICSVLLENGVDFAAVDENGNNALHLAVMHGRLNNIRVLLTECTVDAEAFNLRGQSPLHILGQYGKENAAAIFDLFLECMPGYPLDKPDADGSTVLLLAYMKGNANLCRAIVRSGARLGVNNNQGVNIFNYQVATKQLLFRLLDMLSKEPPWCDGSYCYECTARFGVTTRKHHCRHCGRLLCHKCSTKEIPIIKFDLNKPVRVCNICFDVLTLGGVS
UniProt Q6NS38: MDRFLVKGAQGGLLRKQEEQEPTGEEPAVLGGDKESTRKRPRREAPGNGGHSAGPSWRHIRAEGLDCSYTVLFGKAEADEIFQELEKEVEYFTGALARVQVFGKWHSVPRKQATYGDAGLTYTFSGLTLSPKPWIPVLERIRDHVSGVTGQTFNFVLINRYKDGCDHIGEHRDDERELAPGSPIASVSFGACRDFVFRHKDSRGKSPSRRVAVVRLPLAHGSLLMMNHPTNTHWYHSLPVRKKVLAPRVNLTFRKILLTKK
UniProt P04075: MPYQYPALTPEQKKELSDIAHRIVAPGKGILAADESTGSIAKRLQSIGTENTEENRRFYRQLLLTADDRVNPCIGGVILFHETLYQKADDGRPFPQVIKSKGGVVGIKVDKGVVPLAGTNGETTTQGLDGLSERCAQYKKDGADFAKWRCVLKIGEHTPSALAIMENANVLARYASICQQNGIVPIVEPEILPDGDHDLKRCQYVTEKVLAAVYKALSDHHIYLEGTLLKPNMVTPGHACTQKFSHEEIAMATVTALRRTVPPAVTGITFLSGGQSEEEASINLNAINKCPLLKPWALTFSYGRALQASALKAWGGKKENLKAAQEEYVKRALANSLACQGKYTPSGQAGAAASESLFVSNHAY
UniProt Q10567: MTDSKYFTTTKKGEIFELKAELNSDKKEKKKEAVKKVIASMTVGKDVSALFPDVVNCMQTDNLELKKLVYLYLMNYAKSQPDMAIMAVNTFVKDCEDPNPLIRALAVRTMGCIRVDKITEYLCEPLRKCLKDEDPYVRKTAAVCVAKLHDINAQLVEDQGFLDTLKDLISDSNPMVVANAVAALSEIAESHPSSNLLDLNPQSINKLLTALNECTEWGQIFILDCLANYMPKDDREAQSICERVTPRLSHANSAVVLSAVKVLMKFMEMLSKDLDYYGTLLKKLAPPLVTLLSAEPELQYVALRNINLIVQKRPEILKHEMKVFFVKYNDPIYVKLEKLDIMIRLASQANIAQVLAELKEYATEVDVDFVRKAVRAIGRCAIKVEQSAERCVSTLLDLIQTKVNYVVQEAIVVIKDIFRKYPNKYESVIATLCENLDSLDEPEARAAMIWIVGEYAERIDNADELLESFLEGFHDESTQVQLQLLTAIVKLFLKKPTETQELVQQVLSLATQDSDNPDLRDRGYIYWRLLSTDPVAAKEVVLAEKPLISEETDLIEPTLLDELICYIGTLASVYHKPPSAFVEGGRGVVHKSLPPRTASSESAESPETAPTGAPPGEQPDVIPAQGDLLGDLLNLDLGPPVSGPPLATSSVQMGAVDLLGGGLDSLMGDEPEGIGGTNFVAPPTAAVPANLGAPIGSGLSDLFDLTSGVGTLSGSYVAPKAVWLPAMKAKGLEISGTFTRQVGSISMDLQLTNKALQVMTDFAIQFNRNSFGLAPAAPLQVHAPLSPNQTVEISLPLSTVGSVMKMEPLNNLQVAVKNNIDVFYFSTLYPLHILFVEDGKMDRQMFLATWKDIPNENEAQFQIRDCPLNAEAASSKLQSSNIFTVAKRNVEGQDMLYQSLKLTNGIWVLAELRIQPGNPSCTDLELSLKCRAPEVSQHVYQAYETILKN

Legend:
Experiment in all cases: log2 fold change, soluble protein after heating vs DMSO (PISA); higher = thermal stabilisation; K562 lysate, 10 uM; active = over 0.2 and 3.5 SD of the protein, either way, in both replicates (recomputed)
[1] = compound: C=CC(=O)N1CCC[C@@H](n2nc(-c3ccc(Oc4ccccc4)cc3)c3c(N)ncnc32)C1 [ibrutinib]
Procedure, shortened: (§1)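 The values are log-two fold changes in thermal stability compared with solvent controls and come from duplicates. They were obtained by TMTpro 16plex LC-MS/MS, with channel sums equalised, on the supernatant after 21,000xg for 90 min. That supernatant came from crude K562 extract at 1 mg/mL protein treated with 10 μM compound for 30 min, heated for 3 min across 48°C-58°C, pooled and brought to 0.5% NP-40 at 4°C.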

[2] = compound: CC(=O)c1cnc2ccc(-c3cc(Cl)c(O)c(Cl)c3)nc2c1N[C@H]1CC[C@H](CN(C)C)CC1
Procedure, shortened: as §1

[3] = compound: CC(C)(C)Cn1c(N)nc2ccc(-c3[nH]c(C(C)(C)C)nc3-c3ccc(F)cc3)nc21 [ralimetinib]
Procedure, shortened: as §1

[4] = compound: CC(C)(O)CC(=O)NCCn1ccc2ncnc(Nc3ccc(Oc4cccc(C(F)(F)F)c4)c(Cl)c3)c21
Procedure, shortened: as §1

[5] = compound: CC(C)C1=C2N=C(C=C(N2N=C1)NCC3=CC=CC=C3)NCCCCCCN
Procedure, shortened: as §1

[6] = compound: CC1=C(C(CC(=O)N1)C2=CC=C(C=C2)C(F)(F)F)C(=O)NC3=C(C=C4C(=C3)C=NN4)F
Procedure, shortened: as §1

[7] = compound: CC1=C(C2=C(C=C1)C(=O)C3=CC=CC=C3N2CCCN)C
Procedure, shortened: as §1

[8] = compound: CC1=C(C=C(C=C1)NC(=O)C2=CC(=CC=C2)C(C)(C)C#N)NC3=CC4=C(C=C3)N=CN(C4=O)C
Procedure, shortened: as §1

[9] = compound: CC1=C(C=C(C=C1)NC(=O)C2=CC(=CC=C2)N(C)C)NC(=O)C3=CC=C(C=C3)O
Procedure, shortened: as §1

[10] = compound: CC1=CC=C(C=C1)SC2=C3C=C(SC3=CN=C2)C(=O)N
Procedure, shortened: as §1

[11] = compound: CCCS(=O)(=O)Nc1ccc(F)c(C(=O)c2c[nH]c3ncc(-c4ccc(Cl)cc4)cc23)c1F [vemurafenib]
Procedure, shortened: as §1

[12] = compound: CCCS(=O)(=O)Nc1ccc(F)c(C(=O)c2c[nH]c3ncc(Cl)cc23)c1F
Procedure, shortened: as §1

[13] = compound: CCN(CCCOc1ccc2c(Nc3cc(CC(=O)Nc4cccc(F)c4)[nH]n3)ncnc2c1)CCOP(=O)(O)O [barasertib]
Procedure, shortened: as §1

[14] = compound: CC[C@@H]1C(=O)N(C)c2cnc(Nc3ccc(C(=O)NC4CCN(C)CC4)cc3OC)nc2N1C1CCCC1
Procedure, shortened: as §1

[15] = compound: CC[C@@H]1C(=O)N(C)c2cnc(Nc3ccc(C(=O)N[C@H]4CC[C@H](N5CCN(CC6CC6)CC5)CC4)cc3OC)nc2N1C(C)C [volasertib]
Procedure, shortened: as §1

[16] = compound: CCn1c(C(=O)N(C2CC2)C2CC2)cc2c3c(ncn3C)c(Nc3cc(C)n(C)n3)nc21
Procedure, shortened: as §1

[17] = compound: CCn1cc(-c2ccnc3[nH]c(-c4cccc(CN(C)C)c4)cc23)c(-c2ccc(NC(=O)N(C)C)cc2)n1
Procedure, shortened: as §1

[18] = compound: CN1CCC(CNc2ccc3ncc(-c4cccc(OC(F)(F)F)c4)n3n2)CC1
Procedure, shortened: as §1

[19] = compound: CN1CCN(CCOc2cc(OC3CCOCC3)c3c(Nc4c(Cl)ccc5c4OCO5)ncnc3c2)CC1 [saracatinib]
Procedure, shortened: as §1

[20] = compound: CN1CCN(c2nc(C3=C(c4c[nH]c5ccccc45)C(=O)NC3=O)c3ccccc3n2)CC1 [sotrastaurin]
Procedure, shortened: as §1

Measured: log2 fold change

ALDH4A1 (UniProt P30038)
inactive: [1] 0.064 | [2] 0.024 | [3] 0.09 | [4] -0.011 | [5] -0.061 | [6] -0.014 | [7] -0.088 | [8] -0.043 | [9] 0.054 | [10] 0 | [11] -0.042 | [12] 0.02 | [13] -0.021 | [14] 0.008 | [15] -0.092 | [16] -0.006 | [17] -0.023 | [18] -0.029 | [19] -0.098 | [20] 0.051

ANAPC7 (UniProt Q9UJX3)
inactive: [1] -0.007 | [2] 0.002 | [3] 0.015 | [4] -0.009 | [5] 0.001 | [6] 0.01 | [7] 0.002 | [8] 0.022 | [9] 0.023 | [10] 0.01 | [11] -0.026 | [12] 0.033 | [13] -0.02 | [14] -0.035 | [15] -0.029 | [16] 0.016 | [17] -0.022 | [18] -0.03 | [19] 0.025 | [20] -0.001

ALDH9A1 isoform 3 (UniProt P49189)
inactive: [1] -0.017 | [2] -0.01 | [3] 0.001 | [4] 0.039 | [5] -0.004 | [6] -0.032 | [7] 0.022 | [8] 0.022 | [9] 0.012 | [10] -0.01 | [11] -0.005 | [12] 0.032 | [13] -0.003 | [14] 0.028 | [15] -0.013 | [16] -0.003 | [17] 0.129 | [18] -0.015 | [19] -0.02 | [20] -0.055

ANKMY2 (UniProt Q8IV38)
inactive: [1] 0.01 | [2] 0.005 | [3] 0.01 | [4] -0.012 | [5] 0.002 | [6] -0.007 | [7] -0.003 | [8] 0.032 | [9] -0.002 | [10] 0.011 | [11] -0.015 | [12] 0.017 | [13] 0.019 | [14] 0 | [15] -0.047 | [16] 0.021 | [17] 0.141 | [18] -0.091 | [19] 0.003 | [20] 0.005

ALDH1L2 (UniProt Q3SY69)
inactive: [1] 0.033 | [2] 0.034 | [3] 0.024 | [4] -0.038 | [5] 0.006 | [6] 0.029 | [7] -0.022 | [8] -0.028 | [9] -0.006 | [10] 0.016 | [11] -0.084 | [12] -0.026 | [13] 0.002 | [14] -0.006 | [15] -0.045 | [16] 0.007 | [17] -0.089 | [18] -0.014 | [19] -0.002 | [20] 0.013

Taken from the listing (2 entries):
ANAPC7 (UniProt Q9UJX3)
inactive: [1] -0.007 | [2] 0.002 | [3] 0.015 | [4] -0.009 | [5] 0.001 | [6] 0.01 | [7] 0.002 | [8] 0.022 | [9] 0.023 | [10] 0.01 | [11] -0.026 | [12] 0.033 | [13] -0.02 | [14] -0.035 | [15] -0.029 | [16] 0.016 | [17] -0.022 | [18] -0.03 | [19] 0.025 | [20] -0.001

ALDH9A1 isoform 3 (UniProt P49189)
inactive: [1] -0.017 | [2] -0.01 | [3] 0.001 | [4] 0.039 | [5] -0.004 | [6] -0.032 | [7] 0.022 | [8] 0.022 | [9] 0.012 | [10] -0.01 | [11] -0.005 | [12] 0.032 | [13] -0.003 | [14] 0.028 | [15] -0.013 | [16] -0.003 | [17] 0.129 | [18] -0.015 | [19] -0.02 | [20] -0.055

Carrying on:

AKT1 (UniProt P31749)
inactive: [1] 0.028 | [2] 0.013 | [3] 0.005 | [4] -0.023 | [5] 0.009 | [6] 0.003 | [7] -0.009 | [8] 0 | [9] -0.006 | [10] 0.019 | [11] 0.071 | [12] 0.011 | [13] -0.023 | [14] -0.019 | [15] -0.026 | [16] -0.031 | [17] -0.068 | [18] 0.055 | [19] 0.055 | [20] 0.051

AP1S1 (UniProt P61966)
inactive: [1] 0.007 | [2] 0.002 | [3] 0.051 | [4] 0.06 | [5] -0.031 | [6] -0.06 | [7] 0.016 | [8] -0.051 | [9] -0.015 | [10] 0 | [11] -0.048 | [12] 0.007 | [13] -0.025 | [14] -0.021 | [15] 0.017 | [16] 0.084 | [17] 0.04 | [18] 0.033 | [19] -0.053 | [20] 0.008

AP1M1 (UniProt Q9BXS5)
inactive: [1] -0.013 | [2] 0.004 | [3] 0.011 | [4] -0.01 | [5] 0 | [6] -0.011 | [7] -0.004 | [8] -0.007 | [9] 0.013 | [10] -0.004 | [11] 0.009 | [12] -0.005 | [13] -0.024 | [14] 0.006 | [15] 0.007 | [16] -0.012 | [17] -0.067 | [18] 0.034 | [19] 0.007 | [20] 0.01

ANO10 (UniProt Q9NW15)
inactive: [1] 0.051 | [2] 0.001 | [3] -0.031 | [4] -0.019 | [5] 0.014 | [6] -0.023 | [7] 0.032 | [8] 0.003 | [9] 0.015 | [10] 0.044 | [11] -0.003 | [12] 0.022 | [13] -0.034 | [14] -0.037 | [15] -0.01 | [16] 0 | [17] -0.03 | [18] -0.044 | [19] 0 | [20] 0.025

AKT1S1 isoform 3 (UniProt Q96B36)
inactive: [1] 0.045 | [2] 0.004 | [3] -0.008 | [4] -0.037 | [5] 0.013 | [6] -0.028 | [7] -0.007 | [8] 0.02 | [9] -0.023 | [10] -0.008 | [11] 0 | [12] -0.014 | [13] 0.019 | [14] -0.005 | [15] 0.009 | [16] 0.026 | [17] -0.002 | [18] 0.03 | [19] 0 | [20] -0.012

ANKFY1 isoform 4 (UniProt Q9P2R3)
inactive: [1] -0.014 | [2] -0.014 | [3] -0.002 | [4] -0.028 | [5] -0.007 | [6] 0.033 | [7] -0.004 | [8] 0.04 | [9] 0.046 | [10] -0.016 | [11] 0.079 | [12] 0.007 | [13] 0.049 | [14] -0.029 | [15] -0.028 | [16] 0.014 | [17] -0.014 | [18] -0.052 | [19] 0.006 | [20] -0.018

AP1G2 (UniProt O75843)
inactive: [1] 0.012 | [2] -0.087 | [3] 0.069 | [4] 0.013 | [5] -0.121 | [6] -0.109 | [7] -0.156 | [8] -0.011 | [9] 0.023 | [10] -0.027 | [11] -0.057 | [12] 0.044 | [13] 0.011 | [14] -0.014 | [15] -0.053 | [16] -0.003 | [17] -0.007 | [18] 0.032 | [19] -0.032 | [20] 0.022

ALKBH2 (UniProt Q6NS38)
inactive: [1] 0.004 | [2] -0.029 | [3] -0.014 | [4] -0.051 | [5] 0.068 | [6] 0.03 | [7] 0.022 | [8] 0.123 | [9] 0.13 | [10] -0.013 | [11] -0.008 | [12] 0.043 | [13] 0.062 | [14] 0.039 | [15] 0.037 | [16] -0.089 | [17] -0.098 | [18] 0.019 | [19] -0.066 | [20] 0.135

ALYREF (UniProt Q86V81)
inactive: [1] 0.008 | [2] -0.001 | [3] -0.009 | [4] 0.015 | [5] -0.06 | [6] -0.054 | [7] 0.026 | [8] -0.056 | [9] 0.025 | [10] 0.029 | [11] 0.005 | [12] 0 | [13] -0.039 | [14] 0.003 | [15] 0.017 | [16] -0.012 | [17] 0.19 | [18] -0.06 | [19] 0.026 | [20] 0.012

ALDOA (UniProt P04075)
inactive: [1] 0.025 | [2] -0.007 | [3] 0.016 | [4] 0.007 | [5] 0.012 | [6] -0.032 | [7] 0.012 | [8] 0.034 | [9] -0.002 | [10] -0.035 | [11] -0.015 | [12] 0.024 | [13] -0.053 | [14] 0.006 | [15] 0.038 | [16] -0.019 | [17] -0.051 | [18] 0.088 | [19] 0.003 | [20] -0.018

AP1B1 (UniProt Q10567)
inactive: [1] 0.031 | [2] 0.002 | [3] 0.012 | [4] 0.007 | [5] -0.012 | [6] -0.031 | [7] 0.019 | [8] 0.028 | [9] -0.002 | [10] 0.017 | [11] -0.032 | [12] 0.023 | [13] -0.007 | [14] 0.015 | [15] 0.018 | [16] 0.005 | [17] -0.052 | [18] 0.048 | [19] -0.015 | [20] 0.003
